Measurements from PMC10244377.
These are yes or no findings as the source states them, for the method shown. In cells and extracts the contact can be indirect. Some results given as binding are weak or reduced against the parent protein; the word gives no strength.

Chains of the proteins cited; added tags and fusions are not shown.
UniProt Q9UKV8: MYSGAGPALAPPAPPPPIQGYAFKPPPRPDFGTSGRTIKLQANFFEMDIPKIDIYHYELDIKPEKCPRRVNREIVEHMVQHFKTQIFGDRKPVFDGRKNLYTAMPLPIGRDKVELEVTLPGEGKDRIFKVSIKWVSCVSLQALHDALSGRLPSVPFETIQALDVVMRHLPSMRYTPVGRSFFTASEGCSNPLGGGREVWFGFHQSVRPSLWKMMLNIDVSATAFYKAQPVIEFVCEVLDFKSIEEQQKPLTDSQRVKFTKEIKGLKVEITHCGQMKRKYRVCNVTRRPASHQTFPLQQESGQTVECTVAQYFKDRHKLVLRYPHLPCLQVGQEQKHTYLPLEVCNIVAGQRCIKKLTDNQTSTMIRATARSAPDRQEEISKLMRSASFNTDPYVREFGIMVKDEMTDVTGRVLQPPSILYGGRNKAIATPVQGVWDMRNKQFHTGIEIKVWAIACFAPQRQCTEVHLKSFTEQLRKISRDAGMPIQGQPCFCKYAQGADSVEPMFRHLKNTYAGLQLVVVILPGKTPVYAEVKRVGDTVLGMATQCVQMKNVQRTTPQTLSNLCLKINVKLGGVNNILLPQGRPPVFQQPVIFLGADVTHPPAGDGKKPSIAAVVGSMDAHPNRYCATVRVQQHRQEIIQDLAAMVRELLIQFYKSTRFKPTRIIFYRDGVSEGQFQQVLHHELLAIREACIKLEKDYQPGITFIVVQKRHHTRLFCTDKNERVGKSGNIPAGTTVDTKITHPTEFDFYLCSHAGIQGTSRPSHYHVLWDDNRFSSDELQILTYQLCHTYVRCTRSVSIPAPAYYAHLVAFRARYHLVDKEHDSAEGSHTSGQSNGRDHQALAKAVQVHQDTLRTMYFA

Tests used:
[1] = target: T1, Lissencephaly-1 (LIS1), human, endogenous in hESCs (human (endogenous in hESCs)) (UniProt P43034); test: co-IP; endogenous proteins, nuclear and cytoplasmic fractions of hESCs; IP with the indicated antibodies, IgG as control; western blot
T1 sequence: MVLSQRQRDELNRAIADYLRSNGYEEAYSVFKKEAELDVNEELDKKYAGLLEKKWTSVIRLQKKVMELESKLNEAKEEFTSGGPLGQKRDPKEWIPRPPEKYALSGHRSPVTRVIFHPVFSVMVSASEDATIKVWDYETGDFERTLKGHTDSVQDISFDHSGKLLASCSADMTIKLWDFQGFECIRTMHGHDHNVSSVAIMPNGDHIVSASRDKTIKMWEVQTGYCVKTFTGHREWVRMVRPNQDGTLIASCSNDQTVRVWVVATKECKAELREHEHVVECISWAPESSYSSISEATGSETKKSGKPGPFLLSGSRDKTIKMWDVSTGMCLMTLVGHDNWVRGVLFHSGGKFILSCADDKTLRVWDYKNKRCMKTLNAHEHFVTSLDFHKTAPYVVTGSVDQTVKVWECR

[2] = target: T2, LIS1 in the Benzonase-treated whole cell extract (Fig. 2f) (UniProt P43034); test: co-IP; total whole cell extract treated with Benzonase to remove RNA; IP with the indicated antibodies, IgG as control; western blot
T2 sequence: T1 sequence

binding [1]	binding [2]	Substance
binds		AGO2, human, endogenous in hESCs (from UniProt Q9UKV8 1-859)
	binds	AGO2 in the Benzonase-treated whole cell extract (Fig. 2f) (from UniProt Q9UKV8 1-859)
